Measured values reported in the supplement of paper PMC11006884.
Only a part is listed here, and it is no random draw.

The chains behind the UniProt entries cited, without tags or fusion partners. Where a name states a change or a piece, a line headed by the entry shows the natural chain unless it says otherwise.
UniProt P07814: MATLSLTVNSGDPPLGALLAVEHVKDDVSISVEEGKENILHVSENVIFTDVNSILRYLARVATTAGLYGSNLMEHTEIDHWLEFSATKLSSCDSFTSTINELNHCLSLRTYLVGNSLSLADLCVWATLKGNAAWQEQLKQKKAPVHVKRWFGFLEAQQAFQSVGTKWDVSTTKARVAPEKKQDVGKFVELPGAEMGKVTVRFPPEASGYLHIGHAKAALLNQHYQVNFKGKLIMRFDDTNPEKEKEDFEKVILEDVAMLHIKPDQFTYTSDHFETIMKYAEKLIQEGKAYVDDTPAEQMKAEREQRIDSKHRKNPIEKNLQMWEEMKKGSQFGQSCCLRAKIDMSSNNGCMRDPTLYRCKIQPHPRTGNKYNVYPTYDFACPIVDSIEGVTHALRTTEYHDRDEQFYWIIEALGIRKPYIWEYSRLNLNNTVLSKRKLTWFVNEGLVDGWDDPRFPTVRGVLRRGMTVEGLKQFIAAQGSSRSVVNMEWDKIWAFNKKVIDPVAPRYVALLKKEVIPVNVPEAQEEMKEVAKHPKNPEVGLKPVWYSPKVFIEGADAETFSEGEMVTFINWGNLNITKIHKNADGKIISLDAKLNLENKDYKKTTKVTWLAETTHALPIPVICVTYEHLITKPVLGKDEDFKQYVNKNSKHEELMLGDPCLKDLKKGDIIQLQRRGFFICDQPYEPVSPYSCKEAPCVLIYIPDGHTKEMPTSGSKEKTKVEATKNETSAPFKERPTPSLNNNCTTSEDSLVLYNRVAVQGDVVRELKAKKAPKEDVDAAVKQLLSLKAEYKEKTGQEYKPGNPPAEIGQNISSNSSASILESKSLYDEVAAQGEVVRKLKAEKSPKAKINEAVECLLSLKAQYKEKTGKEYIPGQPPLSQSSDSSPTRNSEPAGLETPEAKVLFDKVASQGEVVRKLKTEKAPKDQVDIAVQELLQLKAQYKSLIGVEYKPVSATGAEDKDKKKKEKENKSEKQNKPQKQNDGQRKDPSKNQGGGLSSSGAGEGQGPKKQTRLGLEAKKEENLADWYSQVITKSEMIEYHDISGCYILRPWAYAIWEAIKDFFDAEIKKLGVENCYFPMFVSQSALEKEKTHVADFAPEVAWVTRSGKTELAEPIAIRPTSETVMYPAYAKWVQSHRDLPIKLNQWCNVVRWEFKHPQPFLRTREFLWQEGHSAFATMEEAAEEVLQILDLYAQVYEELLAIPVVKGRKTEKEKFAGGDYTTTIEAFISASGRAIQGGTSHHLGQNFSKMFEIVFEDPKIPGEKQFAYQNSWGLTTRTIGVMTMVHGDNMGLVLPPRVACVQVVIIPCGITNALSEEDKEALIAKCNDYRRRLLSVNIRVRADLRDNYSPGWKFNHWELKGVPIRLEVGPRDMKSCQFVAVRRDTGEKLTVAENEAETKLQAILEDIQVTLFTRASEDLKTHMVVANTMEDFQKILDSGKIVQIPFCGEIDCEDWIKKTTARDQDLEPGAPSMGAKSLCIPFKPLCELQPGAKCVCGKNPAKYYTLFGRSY
UniProt P09543: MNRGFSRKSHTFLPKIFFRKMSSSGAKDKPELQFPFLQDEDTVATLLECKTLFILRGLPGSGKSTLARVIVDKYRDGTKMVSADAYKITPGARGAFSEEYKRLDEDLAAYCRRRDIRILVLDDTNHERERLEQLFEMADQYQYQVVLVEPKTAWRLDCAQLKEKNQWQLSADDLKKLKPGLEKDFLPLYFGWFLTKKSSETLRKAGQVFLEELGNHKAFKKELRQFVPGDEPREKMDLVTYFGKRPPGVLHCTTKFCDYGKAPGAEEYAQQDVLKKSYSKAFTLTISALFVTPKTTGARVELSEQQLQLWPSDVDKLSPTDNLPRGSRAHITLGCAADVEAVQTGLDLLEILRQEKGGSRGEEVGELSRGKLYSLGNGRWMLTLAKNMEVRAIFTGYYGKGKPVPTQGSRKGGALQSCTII
UniProt P16152: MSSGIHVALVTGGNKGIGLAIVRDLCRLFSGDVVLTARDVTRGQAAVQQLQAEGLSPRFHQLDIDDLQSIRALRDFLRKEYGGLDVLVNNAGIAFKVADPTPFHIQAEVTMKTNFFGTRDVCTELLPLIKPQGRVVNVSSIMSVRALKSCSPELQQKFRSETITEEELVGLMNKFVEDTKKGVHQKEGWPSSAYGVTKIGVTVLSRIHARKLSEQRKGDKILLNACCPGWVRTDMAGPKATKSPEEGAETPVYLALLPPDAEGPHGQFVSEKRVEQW
UniProt P09960: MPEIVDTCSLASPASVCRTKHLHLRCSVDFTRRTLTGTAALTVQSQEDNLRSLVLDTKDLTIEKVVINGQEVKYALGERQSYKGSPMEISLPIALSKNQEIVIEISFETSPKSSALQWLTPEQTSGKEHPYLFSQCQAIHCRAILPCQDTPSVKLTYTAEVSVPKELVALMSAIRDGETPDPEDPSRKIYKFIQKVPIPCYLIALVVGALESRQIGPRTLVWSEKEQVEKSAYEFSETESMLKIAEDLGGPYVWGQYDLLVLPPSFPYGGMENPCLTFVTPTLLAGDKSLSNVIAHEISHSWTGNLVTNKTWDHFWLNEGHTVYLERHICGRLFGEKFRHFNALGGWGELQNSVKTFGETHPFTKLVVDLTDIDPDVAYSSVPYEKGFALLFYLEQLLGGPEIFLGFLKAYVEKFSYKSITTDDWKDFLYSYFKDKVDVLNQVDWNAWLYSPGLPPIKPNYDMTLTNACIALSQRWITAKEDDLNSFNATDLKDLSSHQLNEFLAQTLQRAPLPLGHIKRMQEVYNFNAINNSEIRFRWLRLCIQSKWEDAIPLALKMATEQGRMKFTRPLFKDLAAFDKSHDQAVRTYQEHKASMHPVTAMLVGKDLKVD
UniProt P11413, whole entry, looked up: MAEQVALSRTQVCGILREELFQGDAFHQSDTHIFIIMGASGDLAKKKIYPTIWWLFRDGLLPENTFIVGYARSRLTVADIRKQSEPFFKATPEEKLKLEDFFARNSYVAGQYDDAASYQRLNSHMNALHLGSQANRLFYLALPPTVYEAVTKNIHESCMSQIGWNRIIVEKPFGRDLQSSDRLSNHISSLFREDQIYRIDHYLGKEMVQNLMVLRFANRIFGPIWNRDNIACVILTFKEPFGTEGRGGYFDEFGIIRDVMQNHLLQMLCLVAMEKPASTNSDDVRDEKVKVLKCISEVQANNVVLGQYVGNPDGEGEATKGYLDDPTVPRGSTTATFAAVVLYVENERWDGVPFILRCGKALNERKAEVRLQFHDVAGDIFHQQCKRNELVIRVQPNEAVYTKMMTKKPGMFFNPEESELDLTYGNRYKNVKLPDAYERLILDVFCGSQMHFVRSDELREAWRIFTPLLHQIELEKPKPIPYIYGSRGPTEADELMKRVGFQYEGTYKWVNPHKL
UniProt P09110: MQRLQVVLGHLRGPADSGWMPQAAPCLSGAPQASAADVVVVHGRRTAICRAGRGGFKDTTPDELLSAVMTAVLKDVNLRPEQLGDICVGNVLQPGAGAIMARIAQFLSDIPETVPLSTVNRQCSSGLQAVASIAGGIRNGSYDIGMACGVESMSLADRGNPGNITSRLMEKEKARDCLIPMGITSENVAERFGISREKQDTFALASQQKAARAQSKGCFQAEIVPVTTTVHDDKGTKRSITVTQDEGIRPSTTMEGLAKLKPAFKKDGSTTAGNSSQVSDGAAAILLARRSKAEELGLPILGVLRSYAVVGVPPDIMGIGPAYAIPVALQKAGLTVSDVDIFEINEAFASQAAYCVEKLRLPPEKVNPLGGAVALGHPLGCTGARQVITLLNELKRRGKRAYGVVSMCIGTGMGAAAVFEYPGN
UniProt P10768: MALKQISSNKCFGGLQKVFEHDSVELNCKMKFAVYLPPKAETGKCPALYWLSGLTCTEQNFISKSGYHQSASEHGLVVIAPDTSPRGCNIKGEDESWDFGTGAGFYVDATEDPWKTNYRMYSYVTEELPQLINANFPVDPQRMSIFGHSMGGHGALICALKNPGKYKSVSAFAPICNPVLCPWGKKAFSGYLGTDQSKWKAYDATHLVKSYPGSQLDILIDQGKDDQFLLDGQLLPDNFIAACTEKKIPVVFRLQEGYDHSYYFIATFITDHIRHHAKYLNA
UniProt P11310: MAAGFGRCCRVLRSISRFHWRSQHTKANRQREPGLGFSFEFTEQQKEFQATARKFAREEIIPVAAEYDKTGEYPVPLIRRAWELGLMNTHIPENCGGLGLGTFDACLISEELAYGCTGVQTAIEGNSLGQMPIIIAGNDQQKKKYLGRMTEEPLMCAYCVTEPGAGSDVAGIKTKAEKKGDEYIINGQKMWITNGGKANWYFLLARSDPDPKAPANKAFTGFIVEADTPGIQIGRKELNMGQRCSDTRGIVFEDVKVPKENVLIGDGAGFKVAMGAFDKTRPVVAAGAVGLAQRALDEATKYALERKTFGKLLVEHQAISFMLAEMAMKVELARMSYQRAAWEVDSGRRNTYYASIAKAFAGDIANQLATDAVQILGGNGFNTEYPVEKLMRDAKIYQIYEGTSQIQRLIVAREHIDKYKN
UniProt P13716: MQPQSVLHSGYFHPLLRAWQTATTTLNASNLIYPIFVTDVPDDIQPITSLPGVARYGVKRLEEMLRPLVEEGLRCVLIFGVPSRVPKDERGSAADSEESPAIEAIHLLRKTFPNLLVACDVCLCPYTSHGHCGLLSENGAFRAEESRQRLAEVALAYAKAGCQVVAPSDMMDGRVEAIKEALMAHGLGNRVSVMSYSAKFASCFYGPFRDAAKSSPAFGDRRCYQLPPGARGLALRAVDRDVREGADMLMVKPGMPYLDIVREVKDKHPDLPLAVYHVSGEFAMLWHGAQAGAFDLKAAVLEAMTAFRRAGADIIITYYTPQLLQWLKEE
UniProt P17812: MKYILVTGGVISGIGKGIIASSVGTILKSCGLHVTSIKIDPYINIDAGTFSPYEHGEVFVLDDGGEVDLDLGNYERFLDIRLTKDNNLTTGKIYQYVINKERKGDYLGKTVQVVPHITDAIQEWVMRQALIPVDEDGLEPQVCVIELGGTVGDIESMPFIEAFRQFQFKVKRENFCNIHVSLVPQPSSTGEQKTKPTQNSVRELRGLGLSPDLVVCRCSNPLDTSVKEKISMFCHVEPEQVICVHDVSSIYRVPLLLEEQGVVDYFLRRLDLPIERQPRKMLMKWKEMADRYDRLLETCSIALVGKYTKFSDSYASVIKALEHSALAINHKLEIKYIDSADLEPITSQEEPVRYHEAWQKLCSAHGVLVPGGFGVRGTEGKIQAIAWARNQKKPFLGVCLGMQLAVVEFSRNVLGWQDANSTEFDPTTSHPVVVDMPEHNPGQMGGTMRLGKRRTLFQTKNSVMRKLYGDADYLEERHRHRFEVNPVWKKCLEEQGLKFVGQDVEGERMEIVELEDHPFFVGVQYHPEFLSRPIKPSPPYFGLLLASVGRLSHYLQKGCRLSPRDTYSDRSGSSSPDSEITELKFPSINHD
UniProt P08559, whole entry: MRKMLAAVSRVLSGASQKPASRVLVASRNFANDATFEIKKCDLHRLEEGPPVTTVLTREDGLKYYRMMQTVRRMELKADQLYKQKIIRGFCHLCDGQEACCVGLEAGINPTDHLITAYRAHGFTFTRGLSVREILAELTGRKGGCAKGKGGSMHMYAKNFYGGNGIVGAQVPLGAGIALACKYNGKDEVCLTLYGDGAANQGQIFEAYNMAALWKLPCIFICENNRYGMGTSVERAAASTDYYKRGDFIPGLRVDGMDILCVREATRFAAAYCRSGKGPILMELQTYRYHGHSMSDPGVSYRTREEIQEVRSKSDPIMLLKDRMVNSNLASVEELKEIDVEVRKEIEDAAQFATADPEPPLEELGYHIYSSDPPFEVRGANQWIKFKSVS
UniProt P09382, whole entry, looked up: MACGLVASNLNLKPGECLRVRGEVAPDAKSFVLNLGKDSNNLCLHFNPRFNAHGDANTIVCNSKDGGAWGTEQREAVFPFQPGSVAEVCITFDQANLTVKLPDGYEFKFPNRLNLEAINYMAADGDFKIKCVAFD
UniProt P13667: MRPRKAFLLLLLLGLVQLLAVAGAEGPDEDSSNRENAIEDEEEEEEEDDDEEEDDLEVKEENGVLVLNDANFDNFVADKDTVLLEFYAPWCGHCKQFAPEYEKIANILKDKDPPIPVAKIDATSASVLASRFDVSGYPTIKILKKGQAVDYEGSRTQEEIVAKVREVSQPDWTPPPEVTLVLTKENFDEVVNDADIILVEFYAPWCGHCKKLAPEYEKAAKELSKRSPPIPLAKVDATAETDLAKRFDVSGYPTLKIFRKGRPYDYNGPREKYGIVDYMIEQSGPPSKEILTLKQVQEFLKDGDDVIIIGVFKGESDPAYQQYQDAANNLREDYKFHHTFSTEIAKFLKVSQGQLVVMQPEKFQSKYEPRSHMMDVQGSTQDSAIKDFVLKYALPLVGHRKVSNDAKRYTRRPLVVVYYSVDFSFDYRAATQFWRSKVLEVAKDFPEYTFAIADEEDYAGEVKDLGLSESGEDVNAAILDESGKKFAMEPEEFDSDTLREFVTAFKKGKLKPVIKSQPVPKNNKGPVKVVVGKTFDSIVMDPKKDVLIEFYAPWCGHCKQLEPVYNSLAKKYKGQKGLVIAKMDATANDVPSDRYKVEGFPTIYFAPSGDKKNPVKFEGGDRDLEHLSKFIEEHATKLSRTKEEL

The targets below were run with COC(=O)C#Cc1ccccc1 [methyl 3-phenylpropiolate] (assay: log2 ratio of iodoacetamide-alkyne labeling of the cysteine site, DMSO over compound (competition); higher = stronger covalent engagement of the cysteine by the compound, active = 1 or more). Settings: 500 µM; treatment time 1 h; system: HEK293T cell lysate.
Method in brief: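 HEK293T lysate (2 mg/mL) was incubated with electrophile (500 µM) or vehicle for 1 h at ambient temperature and then with iodoacetamide alkyne for 1 h. Labelled proteins were clicked to sCIP-TMT reagents, pooled, digested, enriched on streptavidin and measured by Orbitrap Eclipse LC-MS/MS with FAIMS, with FragPipe quantification. The per-cysteine log2 competition ratio is mean control-channel reporter intensity over mean compound-channel reporter intensity. Across three replicates with duplicate channels, cysteines quantified in only one replicate were excluded.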
For EPRS C856 (UniProt P07814), the “log2 ratio of iodoacetamide-alkyne labeling” value (from here on “log2 ratio”) was inactive: 0.0127. For CNP C49 (UniProt P09543), the “log2 ratio” value was inactive: -0.017. CNP C158 (UniProt P09543) was tested, and the “log2 ratio” value was inactive: 0.417. With DSP C174 (UniProt P15924) the “log2 ratio” value was active: 1.06. CBR1 C150 (UniProt P16152) was tested, and the “log2 ratio” value was inactive: 0.0732. LTA4H C8 (UniProt P09960) was tested, and the “log2 ratio” value was inactive: 0.273. G6PD C232 (UniProt P11413) was tested, and the “log2 ratio” value was inactive: 0.0394. For ACAA1 C177 (UniProt P09110), the “log2 ratio” value was inactive: 0.162. With EEF2 C812 (UniProt P13639) the “log2 ratio” value was inactive: 0.148. With ATF7 C61 (UniProt P17544) the “log2 ratio” value was inactive: 0.484. For HNRNPL C396 (UniProt P14866), the “log2 ratio” value was inactive: -0.354. For G6PD C294 (UniProt P11413), the “log2 ratio” value was inactive: 0.282. With RPS17 C35 (UniProt P08708) the “log2 ratio” value was inactive: -0.00485. For UniProt P0DN79_C15, the “log2 ratio” value was active: 2.27. For PLS3 C621 (UniProt P13797), the “log2 ratio” value was inactive: 0.0187. In the case of ESD C181 (UniProt P10768), the “log2 ratio” value is reported as inactive: 0.0307. For UniProt P14618_C424, the “log2 ratio” value was inactive: -0.246. In the case of ACADM C159 (UniProt P11310), the “log2 ratio” value is reported as inactive: 0.666. For RNH1 C248 (UniProt P13489), the “log2 ratio” value was inactive: 0.149. UniProt P10155_C520 was tested, and the “log2 ratio” value was inactive: 0.112. DLD C484 (UniProt P09622) was tested, and the “log2 ratio” value was inactive: 0.167. With ALAD C75 (UniProt P13716) the “log2 ratio” value was inactive: -0.37. For UniProt P17812_C176, the “log2 ratio” value was inactive: 0.03. ESD C56 (UniProt P10768) was tested, and the “log2 ratio” value was inactive: -0.365. In the case of HSP90AA1 C529 (UniProt P07900), the “log2 ratio” value is reported as inactive: 0.172. PDHA1 C261 (UniProt P08559) was tested, and the “log2 ratio” value was inactive: -0.175. With LGALS1 C43 (UniProt P09382) the “log2 ratio” value was inactive: -0.258. In the case of CKMT1A C62 (UniProt P12532), the “log2 ratio” value is reported as inactive: 0.126. In the case of TOP2A C455 (UniProt P11388), the “log2 ratio” value is reported as inactive: 0.415. In the case of UniProt P17812_C491, the “log2 ratio” value is reported as inactive: 0.134. With PDIA4 C209 (UniProt P13667) the “log2 ratio” value was inactive: 0.77. In the case of RPS2 C188 (UniProt P15880), the “log2 ratio” value is reported as inactive: 0.087. For CBR1 C226 (UniProt P16152), the “log2 ratio” value was inactive: 0.0193. With IMPDH2 C173 (UniProt P12268) the “log2 ratio” value was inactive: -0.326. For DARS C349 (UniProt P14868), the “log2 ratio” value was inactive: -0.0272. For PRKAR1A C39 (UniProt P10644), the “log2 ratio” value was inactive: 0.104. For DLAT C586 (UniProt P10515), the “log2 ratio” value was inactive: 0.306.
